± gives the standard deviation of the averaged measurements. The list shows a part of the results. The data scatter; read single values as rough.

The subject of test [1] is hAMSC donor 1. Put plainly: Hoechst total cell count ratio vs vehicle control; higher = more cells (less toxicity).
Test [2] has as its system hAMSC donor 2. The test is described as above.
For test [3], the system named is hAMSC donor 1. Put plainly: transgenic luciferase activity (RLU/mg protein) fold change vs vehicle control (ratio); higher = more transgene expression.
The test system of test [4] is hAMSC donor 2. Described as above.
In test [5] the test system is hAMSC donor 1. Put plainly: transfection efficiency (EGFP+ cells / Hoechst count) fold change vs vehicle control (ratio); hAMSC are human adipose-derived mesenchymal stem cells given an EGFP-luciferase plasmid by lipofection; higher = enhanced transfection.
Test [6] has as its system hAMSC donor 2. Described as above.
Setting [7] is: priming compound concentration 0.2 µM.
The mark [8] stands for this setting: priming compound concentration 1.7 µM.
Setting [9] is: priming compound concentration 13 µM.

Consider `Cc1ccc(S(=O)(=O)NC(=O)NN2CCCCCC2)cc1` [Tolazamide], for which the “Hoechst total cell count ratio” value with hAMSC donor 1 [1] (setting [7]) worked out at 1.41 ± 0.14; in the test with hAMSC donor 1 [1] (setting [8]) it was 1.49 ± 0.046; in the test on hAMSC donor 1 [1] (setting [9]), 1.32 ± 0.058; in the test with hAMSC donor 2 [2] (setting [7]), 1.17 ± 0.086; in the test with hAMSC donor 2 [2] (setting [8]) it was 1.03 ± 0.044; in the test with hAMSC donor 2 [2] (setting [9]) it was 1.09 ± 0.24. In addition, the transgenic luciferase activity was 0.955 ± 0.34 in the test on hAMSC donor 1 [3] (setting [8]); 0.479 ± 0.19 with hAMSC donor 1 [3] (setting [9]); 0.391 ± 0.45 with hAMSC donor 2 [4] (setting [7]); 1.02 ± 0.099 in the test with hAMSC donor 2 [4] (setting [8]); 0.948 ± 0.1 with hAMSC donor 2 [4] (setting [9]). In addition, the transfection efficiency with hAMSC donor 1 [5] (setting [7]) was determined as 1.18 ± 0.14; in the test on hAMSC donor 1 [5] (setting [8]) it was 0.852 ± 0.27; with hAMSC donor 1 [5] (setting [9]) it was 1.22 ± 0.26; in the test on hAMSC donor 2 [6] (setting [7]) it was 0.758 ± 0.071; with hAMSC donor 2 [6] (setting [8]), 1.17 ± 0.27; in the test with hAMSC donor 2 [6] (setting [9]) it was 1.14 ± 0.26.

Regarding `C#C[C@]1(OC(C)=O)CC[C@H]2[C@@H]3CCC4=CC(=O)CC[C@@H]4[C@H]3CC[C@@]21C` [19-Norethindrone acetate], the “Hoechst total cell count ratio” value was 1.38 ± 0.15 in the test on hAMSC donor 1 [1] (setting [7]); 1.1 ± 0.16 in the test with hAMSC donor 1 [1] (setting [8]); 1.38 ± 0.25 in the test on hAMSC donor 1 [1] (setting [9]); 1.12 ± 0.036 with hAMSC donor 2 [2] (setting [7]); 1.11 ± 0.033 in the test on hAMSC donor 2 [2] (setting [8]); 1.28 ± 0.41 in the test on hAMSC donor 2 [2] (setting [9]). Moreover, the transgenic luciferase activity in the test with hAMSC donor 1 [3] (setting [8]) was determined as 0.905 ± 0.029; in the test on hAMSC donor 1 [3] (setting [9]), 0.351 ± 0.14; with hAMSC donor 2 [4] (setting [7]) it was 0.82 ± 0.16; in the test on hAMSC donor 2 [4] (setting [8]) it was 0.47 ± 0.095; in the test on hAMSC donor 2 [4] (setting [9]), 0.502 ± 0.084. Besides, the transfection efficiency in the test with hAMSC donor 1 [5] (setting [7]) was 1.12 ± 0.37; in the test on hAMSC donor 1 [5] (setting [8]), 1.28 ± 0.2; in the test on hAMSC donor 1 [5] (setting [9]), 1.1 ± 0.12; with hAMSC donor 2 [6] (setting [7]), 0.816 ± 0.17; with hAMSC donor 2 [6] (setting [8]), 1.05 ± 0.048; in the test with hAMSC donor 2 [6] (setting [9]), 0.816 ± 0.077.

For the molecule `C[n+]1ccccc1/C=N/O` [Pralidoxime chloride], the “Hoechst total cell count ratio” value in the test on hAMSC donor 1 [1] (setting [7]) turned out to be 0.895 ± 0.031; in the test with hAMSC donor 1 [1] (setting [8]), 0.926 ± 0.07; in the test with hAMSC donor 1 [1] (setting [9]) it was 1.04 ± 0.18; with hAMSC donor 2 [2] (setting [7]), 1.1 ± 0.1; with hAMSC donor 2 [2] (setting [8]), 1.13 ± 0.16; with hAMSC donor 2 [2] (setting [9]), 1.18 ± 0.022. The transgenic luciferase activity in the test with hAMSC donor 1 [3] (setting [8]) was 0.357 ± 0.045; in the test with hAMSC donor 1 [3] (setting [9]) it was 1.01 ± 0.47; in the test with hAMSC donor 2 [4] (setting [7]) it was 0.733 ± 0.092; in the test on hAMSC donor 2 [4] (setting [8]) it was 0.964 ± 0.094; in the test with hAMSC donor 2 [4] (setting [9]) it was 0.651 ± 0.12. Further, the transfection efficiency with hAMSC donor 1 [5] (setting [7]) was 0.655 ± 0.32; in the test with hAMSC donor 1 [5] (setting [8]), 1.47 ± 0.31; in the test on hAMSC donor 1 [5] (setting [9]), 0.801 ± 0.32; in the test on hAMSC donor 2 [6] (setting [7]) it was 0.769 ± 0.068; in the test with hAMSC donor 2 [6] (setting [8]), 1.29 ± 0.074; in the test on hAMSC donor 2 [6] (setting [9]), 0.951 ± 0.11.

Turning to `COc1cc(C(=O)NC2CCCNC2)cc(OC)c1OC` (configuration not stated) [Troxipide], the “Hoechst total cell count ratio” value in the test with hAMSC donor 1 [1] (setting [7]) was 1.38 ± 0.27; with hAMSC donor 1 [1] (setting [8]), 1.36 ± 0.029; in the test with hAMSC donor 1 [1] (setting [9]) it was 1.2 ± 0.16; in the test with hAMSC donor 2 [2] (setting [7]) it was 1.11 ± 0.075; in the test on hAMSC donor 2 [2] (setting [8]), 1.3 ± 0.038; in the test with hAMSC donor 2 [2] (setting [9]) it was 0.991 ± 0.16. Moreover, the transgenic luciferase activity came to 0.7 ± 0.29 with hAMSC donor 1 [3] (setting [7]); 1.7 ± 0.46 in the test with hAMSC donor 1 [3] (setting [8]); 0.811 ± 0.091 in the test on hAMSC donor 2 [4] (setting [7]); 0.756 ± 0.0098 in the test with hAMSC donor 2 [4] (setting [8]); 0.719 ± 0.23 with hAMSC donor 2 [4] (setting [9]). Besides, the transfection efficiency was 1.3 ± 0.49 with hAMSC donor 1 [5] (setting [7]); 0.713 ± 0.093 with hAMSC donor 1 [5] (setting [8]); 1.04 ± 0.2 in the test on hAMSC donor 1 [5] (setting [9]); 1.25 ± 0.099 with hAMSC donor 2 [6] (setting [7]); 0.934 ± 0.038 with hAMSC donor 2 [6] (setting [8]); 1.49 ± 0.069 with hAMSC donor 2 [6] (setting [9]).

As to `Cc1cccc(Nc2ccncc2S(=O)(=O)NC(=O)NC(C)C)c1` [Torasemide], the “Hoechst total cell count ratio” value in the test on hAMSC donor 1 [1] (setting [7]) is 1.02 ± 0.036; with hAMSC donor 1 [1] (setting [8]), 1.02 ± 0.11; with hAMSC donor 1 [1] (setting [9]) it was 1.3 ± 0.068; with hAMSC donor 2 [2] (setting [7]), 1.08 ± 0.23; in the test with hAMSC donor 2 [2] (setting [8]), 1.08 ± 0.11; in the test on hAMSC donor 2 [2] (setting [9]), 1.27 ± 0.2. Moreover, the transgenic luciferase activity with hAMSC donor 1 [3] (setting [7]) worked out at 0.591 ± 0.13; with hAMSC donor 1 [3] (setting [8]), 1.05 ± 0.66; with hAMSC donor 2 [4] (setting [7]) it was 0.505 ± 0.33; in the test with hAMSC donor 2 [4] (setting [8]), 1.1 ± 0.033; in the test with hAMSC donor 2 [4] (setting [9]), 0.573 ± 0.26. The transfection efficiency with hAMSC donor 1 [5] (setting [7]) was 1.57 ± 0.4; in the test on hAMSC donor 1 [5] (setting [8]), 1.63 ± 0.15; with hAMSC donor 1 [5] (setting [9]), 1.2 ± 0.33; in the test on hAMSC donor 2 [6] (setting [7]), 1.05 ± 0.12; with hAMSC donor 2 [6] (setting [8]), 1.14 ± 0.058; in the test on hAMSC donor 2 [6] (setting [9]), 1.13 ± 0.22.

As to `Oc1c(Cl)cc(Cl)c2cccnc12` [Chloroxine], the “Hoechst total cell count ratio” value with hAMSC donor 1 [1] (setting [7]) turned out to be 1.08 ± 0.18; in the test on hAMSC donor 1 [1] (setting [8]), 1.11 ± 0.049; in the test with hAMSC donor 1 [1] (setting [9]) it was 0.664 ± 0.053; in the test on hAMSC donor 2 [2] (setting [7]) it was 0.996 ± 0.029; in the test with hAMSC donor 2 [2] (setting [8]), 1.146 ± 0.0089; with hAMSC donor 2 [2] (setting [9]), 1.08 ± 0.16. The transgenic luciferase activity with hAMSC donor 1 [3] (setting [7]) was 0.876 ± 0.38; in the test on hAMSC donor 1 [3] (setting [8]), 0.988 ± 0.071; in the test with hAMSC donor 2 [4] (setting [7]), 0.849 ± 0.2; with hAMSC donor 2 [4] (setting [8]), 1.02 ± 0.12; in the test on hAMSC donor 2 [4] (setting [9]), 0.519 ± 0.2. Besides, the transfection efficiency was 1.18 ± 0.69 with hAMSC donor 1 [5] (setting [7]); 1.06 ± 0.22 in the test on hAMSC donor 1 [5] (setting [8]); 1.06 ± 1.1 with hAMSC donor 1 [5] (setting [9]); 1.11 ± 0.12 in the test on hAMSC donor 2 [6] (setting [7]); 1 ± 0.18 in the test on hAMSC donor 2 [6] (setting [8]); 1.1 ± 0.091 in the test on hAMSC donor 2 [6] (setting [9]).

These data come from the supplement of paper PMC7238544.
